Literature values as cited in patent US20170304466A1, “AAV-Based Gene Therapy” (Arthrogen B.V., priority 2014, published 2017).
At least one compound was matched to its structure with a doubt left.

Tested on: lung
Conditions: Pfeifer et al., Gene Therapy (2011); cited from earlier work

C[C@@H]1C[C@H]2[C@@H]3CCC4=CC(=O)C=C[C@]4(C)[C@@]3(F)[C@@H](O)C[C@]2(C)[C@@]1(O)C(=O)CO [dexamethasone]
effect on AAV9 gene expression in the lung: did not have any significant effect
